This test has as its target intercellular adhesion molecule 1 (ICAM1) (mouse (endogenous, cells of the co-IP not named)) (UniProt P13597). The test can be described thus: co-IP; Pierce MS-compatible Magnetic IP Kit; cell lysates incubated with the antibody at 4 °C overnight, then protein A/G magnetic beads for 2 h, five washes, eluate immunoblotted. On the technique in general: A western blot detects proteins with antibodies after separation by electrophoresis.

The chains behind the UniProt entries cited, without tags or fusion partners. Residues count along the entry.
UniProt P13597, residues 28-537: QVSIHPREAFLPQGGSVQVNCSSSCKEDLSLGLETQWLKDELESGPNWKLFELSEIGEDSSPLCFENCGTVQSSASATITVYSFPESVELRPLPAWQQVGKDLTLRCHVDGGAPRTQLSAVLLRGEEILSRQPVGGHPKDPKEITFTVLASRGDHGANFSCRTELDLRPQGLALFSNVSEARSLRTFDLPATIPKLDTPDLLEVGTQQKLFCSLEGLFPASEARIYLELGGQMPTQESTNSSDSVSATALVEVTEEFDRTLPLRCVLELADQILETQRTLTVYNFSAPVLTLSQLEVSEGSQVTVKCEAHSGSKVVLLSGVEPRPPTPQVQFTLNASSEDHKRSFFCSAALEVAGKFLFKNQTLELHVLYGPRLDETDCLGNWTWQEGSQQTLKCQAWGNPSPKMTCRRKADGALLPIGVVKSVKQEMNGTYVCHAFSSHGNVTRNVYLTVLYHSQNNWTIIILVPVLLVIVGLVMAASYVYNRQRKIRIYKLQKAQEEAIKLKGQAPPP
UniProt Q6PHN9: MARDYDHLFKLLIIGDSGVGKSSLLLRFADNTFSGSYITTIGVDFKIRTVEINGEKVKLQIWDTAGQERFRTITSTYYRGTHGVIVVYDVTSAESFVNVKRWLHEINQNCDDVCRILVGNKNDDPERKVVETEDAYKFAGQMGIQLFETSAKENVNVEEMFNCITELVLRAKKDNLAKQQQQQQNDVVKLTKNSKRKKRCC

No constants are given. Whether binding was seen depends on the method and setting. In cells and extracts the contact can be indirect.

Regarding Rab35 (from UniProt Q6PHN9 1-201), the binding entry is given as “no binding”.

B1: Rab27a (protein, UniProt Q9ERI2 1-221)
chain: MSDGDYDYLIKFLALGDSGVGKTSVLYQYTDGKFNSKFITTVGIDFREKRVVYRANGPDGAVGRGQRIHLQLWDTAGQERFRSLTTAFFRDAMGFLLLFDLTNEQSFLNVRNWISQLQMHAYCENPDIVLCGNKSDLEDQRAVKEEEARELAEKYGIPYFETSAANGTNISHAIEMLLDLIMKRMERCVDKSWIPEGVVRSNGHTSADQLSEEKEKGLCGC
Take B1: the binding result is given as “no binding”.

The record behind these values is article PMC12518853.
